Reference: paper PMC6339786
No constants are given. Whether binding was seen depends on the method and setting. Binding seen in cells or lysates may run through a third protein. Some results given as binding are weak or reduced against the parent protein; the word gives no strength.

The chains behind the UniProt entries cited, without tags or fusion partners. Residues count along the entry.
UniProt P19785: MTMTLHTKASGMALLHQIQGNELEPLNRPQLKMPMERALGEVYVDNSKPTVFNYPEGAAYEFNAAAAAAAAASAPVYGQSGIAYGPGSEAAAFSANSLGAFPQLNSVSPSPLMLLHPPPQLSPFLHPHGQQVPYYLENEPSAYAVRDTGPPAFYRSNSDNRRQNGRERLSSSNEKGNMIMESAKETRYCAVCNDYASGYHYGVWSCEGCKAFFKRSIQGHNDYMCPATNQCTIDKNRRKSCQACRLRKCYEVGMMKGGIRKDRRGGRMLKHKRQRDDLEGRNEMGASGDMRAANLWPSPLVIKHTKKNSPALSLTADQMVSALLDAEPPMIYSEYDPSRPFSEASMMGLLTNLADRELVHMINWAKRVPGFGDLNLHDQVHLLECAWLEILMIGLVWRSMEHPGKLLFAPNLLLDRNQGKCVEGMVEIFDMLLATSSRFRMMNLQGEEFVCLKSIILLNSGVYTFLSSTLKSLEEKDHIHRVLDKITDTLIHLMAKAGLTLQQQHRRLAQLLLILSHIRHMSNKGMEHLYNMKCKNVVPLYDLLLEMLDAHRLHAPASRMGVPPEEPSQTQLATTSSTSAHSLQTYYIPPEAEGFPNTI
UniProt Q60751, residues 31-1373: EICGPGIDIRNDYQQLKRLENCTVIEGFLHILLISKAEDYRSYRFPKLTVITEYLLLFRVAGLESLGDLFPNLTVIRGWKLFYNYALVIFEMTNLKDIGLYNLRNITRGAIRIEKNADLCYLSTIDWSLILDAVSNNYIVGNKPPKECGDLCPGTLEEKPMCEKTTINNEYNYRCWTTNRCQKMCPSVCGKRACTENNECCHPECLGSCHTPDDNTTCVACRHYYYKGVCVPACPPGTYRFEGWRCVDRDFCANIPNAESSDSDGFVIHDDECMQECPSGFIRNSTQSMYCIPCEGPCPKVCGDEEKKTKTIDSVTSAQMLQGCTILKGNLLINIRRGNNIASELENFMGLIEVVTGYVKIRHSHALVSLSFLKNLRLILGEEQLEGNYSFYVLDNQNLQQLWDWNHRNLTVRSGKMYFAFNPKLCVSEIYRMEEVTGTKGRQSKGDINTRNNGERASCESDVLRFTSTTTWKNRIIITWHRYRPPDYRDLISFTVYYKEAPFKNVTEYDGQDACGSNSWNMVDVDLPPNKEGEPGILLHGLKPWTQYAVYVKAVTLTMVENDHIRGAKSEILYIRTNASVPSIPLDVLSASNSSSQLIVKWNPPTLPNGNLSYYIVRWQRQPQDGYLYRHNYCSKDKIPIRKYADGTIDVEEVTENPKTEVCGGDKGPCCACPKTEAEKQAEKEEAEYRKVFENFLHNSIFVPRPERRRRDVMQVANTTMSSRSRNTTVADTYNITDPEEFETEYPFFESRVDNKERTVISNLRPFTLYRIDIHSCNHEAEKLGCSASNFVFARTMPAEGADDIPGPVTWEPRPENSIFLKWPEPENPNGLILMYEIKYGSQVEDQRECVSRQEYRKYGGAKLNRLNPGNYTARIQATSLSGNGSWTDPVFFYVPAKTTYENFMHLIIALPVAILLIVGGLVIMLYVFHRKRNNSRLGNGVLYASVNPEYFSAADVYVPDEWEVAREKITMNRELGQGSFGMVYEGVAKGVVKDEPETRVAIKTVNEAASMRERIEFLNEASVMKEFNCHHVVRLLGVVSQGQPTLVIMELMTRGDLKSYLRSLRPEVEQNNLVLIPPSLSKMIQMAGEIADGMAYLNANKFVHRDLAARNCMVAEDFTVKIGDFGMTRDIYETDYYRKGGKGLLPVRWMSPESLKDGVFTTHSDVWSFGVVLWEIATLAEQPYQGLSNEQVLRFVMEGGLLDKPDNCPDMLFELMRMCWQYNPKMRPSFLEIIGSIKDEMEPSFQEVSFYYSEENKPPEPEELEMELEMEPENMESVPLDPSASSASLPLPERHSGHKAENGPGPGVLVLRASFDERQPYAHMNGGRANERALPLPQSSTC

Key:
[1] = target: E2 α receptor (ERα) (mouse (endogenous in brain endothelial cells)) (UniProt P19785); experiment: co-IP; immunoprecipitation with anti-ERα, blot for IGF-IR; lysate of cultured brain endothelial cells from young (2 month-old) female mice, in response to E2; normalised with the antibody used to pull down; non-immune serum as negative control
[2] = target: E2 α receptor (ERα) (mouse (endogenous in brain endothelial cells)) (UniProt P19785); experiment: condition: only brain endothelial cells from middle-aged (9 month-old) female mice; co-IP; immunoprecipitation with anti-ERα, blot for IGF-IR; lysate of cultured brain endothelial cells from middle-aged (9 month-old) female mice, in response to E2; normalised with the antibody used to pull down; non-immune serum as negative control

IGF-I receptor (IGF-IR) (from UniProt Q60751 31-1373)
binding [1]: binds | binding [2]: no binding
